The target in test [1] is purified integrin αvβ3 (immobilized on microtiter plates). Kind of test: competition ELISA on immobilized αvβ3 against tTF-RGD. In general terms: ELISA stands for enzyme-linked immunosorbent assay.
The target is the same in test [2]. Kind of test: competition ELISA on immobilized αvβ3 against 0.1 µM tTF-RGD; peptide at 1-10 µM.
The target is the same in test [3]. Kind of test: ELISA, purified αvβ3 immobilized on microtiter plates.
For test [4] the target is unchanged. Kind of test: ELISA, 0.1 µM protein on immobilized αvβ3, detected with polyclonal anti-human TF antibody.

No constants are given. Whether binding was seen depends on the method and setting. Binding calls can cover weak binding; strength is not graded here. For some of these results: Where a sequence is shown, tags or fusion partners need not be part of it.

B1: synthetic peptide GRGDSP (peptide)
peptide: GRGDSP
As for B1, the binding entry in test [1] and in test [2] was “binds” throughout.

B2: tTF-GNGRAHA fusion polypeptide with N-terminal affinity tag (protein)
chain: HHHHHHSSGLVPRGSGMKETAAAKFERQHMDSPDLGTDDDDKAMGSGTTNTVAAYNLTWKSTNFKTILEWEPKPVNQVYTVQISTKSGDWKSKCFYTTDTECDLTDEIVKDVKQTYLARVFSYPAGNVESTGSAGEPLYENSPEFTPYLETNLGQPTIQSFEQVGTKVNVTVEDERTLVRRNNTFLSLRDVFGKDLIYTLYYWKSSSSGKKTAKTNTNEFLIDVDKGENYCFSVQAVIPSRTVNRKSTDSPVECMGQEKGEFRGNGRAHA
In the case of B2, the binding entry in test [3] and in test [4] was “binds” in each case.

Values taken from patent US20070032419A1 (ONCOSCIENCE, published 2007).
